The record followed here is PubChem BioAssay AID220 (DTP/NCI, 2004).

The structures appear in SMILES notation. The list does not hold the whole screen: it gathers tests that were run many times, whatever their T/C, doses with no T/C, and many T/C values between a quarter and a half above the control. Further doses and runs are listed elsewhere. T/C gives the treated animals as a percentage of the vehicle group. Schedule codes are those of the source, read here as Q, the interval in days (D) or hours (H), X, the number of doses. Some T/C values carry the count of animals alive at the toxicity check (mostly the fifth day); without a count, all were alive then. Some doses have a count of surviving animals in place of a T/C: the source files T/C as zero there, which appears to mark a toxic dose or a test without result, not a measured value. Counts of survivors are from the toxicity check (mostly the fifth day) where no day follows; animals may have died later. Some doses were run more than once; the results are listed from low to high.

The assay deals with CD8F1 mice, subcutaneous mammary adenocarcinoma, T/C%. In words: NCI In Vivo Anticancer Drug Screen. Data for tumor model Mammary Adenocarcinoma CD8F1 (subcutaneous) in CD8F1. The note with it: higher T/C = larger tumour. In short, it runs like this:
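Compound-treated versus vehicle-treated mice with transplantable tumors; survival or tumor size compared as T/C.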

The mark [1] stands for this setting: T/C endpoint: median tumor weight change, dose: 250.0 mg/kg/injection, schedule: Q01DX001 (ip), vehicle: saline with Tween-80.
Where [2] appears, read: T/C endpoint: median tumor weight change, dose: 500.0 mg/kg/injection, schedule: Q01DX001 (ip), vehicle: Klucel (hydroxypropylcellulose) (HPC).
Setting [3] is: T/C endpoint: median tumor weight change, dose: 1000.0 mg/kg/injection, schedule: Q01DX001 (ip), vehicle: Klucel (hydroxypropylcellulose) (HPC).

As to `COc1cccc2c1C(=N)c1c(O)c3c(c(O)c1C2=O)C[C@@](O)(C(C)=O)C[C@@H]3OC1CC(N)C(O)C(C)O1` (stereo not given in full), the survivor count (T/C endpoint: median tumor weight (est.), dose: 6.67 mg/kg/injection, schedule: Q07DX005 (ip), vehicle: saline) is 2 of 10.

On to `CCS/C(SC)=C(/c1ccccc1)[P+](c1ccccc1)(c1ccccc1)c1ccccc1`, for which the survivor count by setting is: (T/C endpoint: median tumor weight change, dose: 7.5 mg/kg/injection, schedule: Q01DX001 (ip), vehicle: Klucel (hydroxypropylcellulose) (HPC)) 5 of 10 on day 29; (T/C endpoint: median tumor weight change, dose: 15.0 mg/kg/injection, schedule: Q01DX001 (ip), vehicle: Klucel (hydroxypropylcellulose) (HPC)) 2 of 10 on day 29; (T/C endpoint: median tumor weight change, dose: 30.0 mg/kg/injection, schedule: Q01DX001 (ip), vehicle: Klucel (hydroxypropylcellulose) (HPC)) 0 of 10 on day 29; (T/C endpoint: median tumor weight change, dose: 60.0 mg/kg/injection, schedule: Q01DX001 (ip), vehicle: Klucel (hydroxypropylcellulose) (HPC)) 0 of 10 on day 29; (T/C endpoint: median tumor weight change, dose: 120.0 mg/kg/injection, schedule: Q01DX001 (ip), vehicle: Klucel (hydroxypropylcellulose) (HPC)) 0 of 10 on day 29.

As to `CC(=O)NNC(=O)c1ccccn1`, the T/C reads like this: (T/C endpoint: mean tumor weight, dose: 50.0 mg/kg/injection, schedule: Q01DX009 (ip), vehicle: saline, evaluated on day 36) 145 % of control; (T/C endpoint: mean tumor weight, dose: 50.0 mg/kg/injection, schedule: Q07DX005 (ip), vehicle: saline, evaluated on day 30) 138 % of control.

As to `CC1(C)OC1CS(=O)c1ccccc1` (stereo not given), the survivor count is 1 of 10 on day 43 and 2 of 10 on day 27 (T/C endpoint: median tumor weight change, dose: 1000.0 mg/kg/injection, schedule: Q01DX001 (ip), vehicle: saline with Tween-80); 0 of 10 on day 27 and 0 of 10 on day 43 (T/C endpoint: median tumor weight change, dose: 2000.0 mg/kg/injection, schedule: Q01DX001 (ip), vehicle: saline with Tween-80).

Regarding `NC(=S)N/N=C/c1ccc(O)cn1`, the T/C (T/C endpoint: median tumor weight (est.), dose: 25.0 mg/kg/injection, schedule: Q07DX005 (ip), vehicle: saline with Tween-80, evaluated on day 30) was 137 % of control.

As for `CCC1=C2C(=O)c3ccccc3C2=C(C)S(=O)(=O)O1`, the survivor count was 6 of 10 on day 36 under setting [1] and 1 of 10 on day 36 (T/C endpoint: median tumor weight change, dose: 500.0 mg/kg/injection, schedule: Q01DX001 (ip), vehicle: saline with Tween-80).

As to `CCC[CH2][Sn]1([CH2]CCC)[O]C2C(CO)OC(n3ccc(N)nc3=O)C2[O]1` (stereo not given), the T/C (T/C endpoint: median tumor weight (est.), dose: 0.78 mg/kg/injection, schedule: Q07DX005 (ip), vehicle: Klucel (hydroxypropylcellulose) (HPC), evaluated on day 30) was 131 % of control [9 of 10 alive] and the T/C (T/C endpoint: median tumor weight (est.), dose: 3.12 mg/kg/injection, schedule: Q07DX005 (ip), vehicle: Klucel (hydroxypropylcellulose) (HPC), evaluated on day 33) was 135 % of control. For the same compound, the survivor count is recorded as 5 of 10 on day 30 (T/C endpoint: median tumor weight (est.), dose: 12.5 mg/kg/injection, schedule: Q07DX005 (ip), vehicle: Klucel (hydroxypropylcellulose) (HPC)) and 0 of 10 on day 30 (T/C endpoint: median tumor weight (est.), dose: 25.0 mg/kg/injection, schedule: Q07DX005 (ip), vehicle: Klucel (hydroxypropylcellulose) (HPC)).

In the case of `COc1ccc(/C=C/C(=O)c2cc(C(=O)O)c(OC)cc2OC)cc1OC`, the survivor count (T/C endpoint: median tumor weight (est.), dose: 400.0 mg/kg/injection, schedule: Q07DX005 (ip), vehicle: saline) is reported as 0 of 10 on day 30.

As to `C[C@H](N)C(=O)N[C@@H]1[C@H]2C(=C(O)C[C@@H](O)[C@@H]2O)C(=O)O[C@@H]1C`, the T/C (T/C endpoint: median tumor weight change, dose: 500.0 mg/kg/injection, schedule: Q01DX001 (ip), vehicle: saline, evaluated on day 28) was 136 % of control. Also, the survivor count (T/C endpoint: median tumor weight change, dose: 4000.0 mg/kg/injection, schedule: Q01DX001 (ip), vehicle: saline) is on record as 0 of 10 on day 28.

For the compound `COC1C(O)CC(OC2C(C)OC(Oc3cc(O)c4c(O)c5c(cc4c3)C[C@@H]([C@H](OC)C(=O)[C@@H](O)[C@@H](C)O)[C@H](OC3CC(OC4CC(OC6CC(C)(O)C(O)C(C)O6)C(O)C(C)O4)C(O)C(C)O3)C5=O)CC2OC(C)=O)OC1C` (stereo not given in full), the T/C (T/C endpoint: median tumor weight (est.), dose: 37.5 mg/kg/injection, schedule: Q07DX005 (ip), vehicle: suspension in saline, evaluated on day 32) was 149 % of control.

For `CNc1nc2c(N)ncnc2n1C1OC(CO)C(O)C1O` (stereo not given), the survivor count was 2 of 10 on day 30 (T/C endpoint: median tumor weight (est.), dose: 100.0 mg/kg/injection, schedule: Q07DX005 (ip), vehicle: suspension in saline); 0 of 10 on day 30 and 5 of 10 on day 30 (T/C endpoint: median tumor weight (est.), dose: 200.0 mg/kg/injection, schedule: Q07DX005 (ip), vehicle: suspension in saline); 1 of 10 on day 30 (T/C endpoint: median tumor weight (est.), dose: 400.0 mg/kg/injection, schedule: Q07DX005 (ip), vehicle: suspension in saline).

Consider `C[C@]12CCC(=O)C=C1CC[C@@H]1[C@@H]2C(=O)C[C@@]2(C)[C@H]1CC[C@]2(O)C(=O)CO`, for which the survivor count is, setting by setting: (T/C endpoint: median tumor weight (est.), dose: 1600.0 mg/kg/injection, schedule: Q07DX005 (ip), vehicle: Klucel (hydroxypropylcellulose) (HPC)) 2 of 10 on day 30 and 6 of 10 on day 30; (T/C endpoint: median tumor weight change, dose: 4000.0 mg/kg/injection, schedule: Q01DX001 (ip), vehicle: Klucel (hydroxypropylcellulose) (HPC)) 6 of 10 on day 29.

For the compound `Nc1ncnc2c1nnn2C1OC(CO)C(O)C1O` (stereo not given), the T/C (T/C endpoint: median tumor weight change, dose: 62.0 mg/kg/injection, schedule: Q01DX001 (ip), vehicle: Klucel (hydroxypropylcellulose) (HPC), evaluated on day 28) is 135 % of control. Also, the survivor count reads like this: under setting [2], 1 of 10 on day 31 and 3 of 10 on day 28; under setting [3], 0 of 10 on day 28 and 0 of 10 on day 31.

`C#C[C@]1(O)CC[C@H]2[C@@H]3CCc4cc(O)ccc4[C@H]3CC[C@@]21C`: the survivor count runs as follows: (T/C endpoint: median tumor weight change, dose: 900.0 mg/kg/injection, schedule: Q01DX001 (ip), vehicle: saline with Tween-80) 0 of 10 on day 32; (T/C endpoint: median tumor weight change, dose: 1800.0 mg/kg/injection, schedule: Q01DX001 (ip), vehicle: saline with Tween-80) 0 of 10 on day 32; (T/C endpoint: median tumor weight change, dose: 3600.0 mg/kg/injection, schedule: Q01DX001 (ip), vehicle: saline with Tween-80) 0 of 10 on day 32.

Consider `CNC(=O)c1cccc2c(Nc3ccc(NS(C)(=O)=O)cc3OC)c3cccc(C)c3nc12`, for which the survivor count runs as follows: (T/C endpoint: median tumor weight change, dose: 60.0 mg/kg/injection, schedule: Q01DX001 (ip), vehicle: water) 6 of 10 on day 28; (T/C endpoint: median tumor weight change, dose: 120.0 mg/kg/injection, schedule: Q01DX001 (ip), vehicle: other) 0 of 10 on day 27; (T/C endpoint: median tumor weight change, dose: 120.0 mg/kg/injection, schedule: Q01DX001 (ip), vehicle: water) 0 of 10 on day 28 and 1 of 10 on day 28; (T/C endpoint: median tumor weight change, dose: 125.0 mg/kg/injection, schedule: Q01DX001 (ip), vehicle: water) 0 of 10 on day 31; (T/C endpoint: median tumor weight change, dose: 250.0 mg/kg/injection, schedule: Q01DX001 (ip), vehicle: water) 0 of 10 on day 31; (T/C endpoint: median tumor weight change, dose: 500.0 mg/kg/injection, schedule: Q01DX001 (ip), vehicle: water) 0 of 10 on day 31. Where the note is “T/C endpoint: median tumor weight change, dose: 1000.0 mg/kg/injection, schedule: Q01DX001 (ip), vehicle: water”, the survivor count is recorded as 0 of 10 on day 31.

Turning to `CCCCCCC1C=Cc2ccccc21` (stereo not given), the survivor count (T/C endpoint: median tumor weight (est.), dose: 200.0 mg/kg/injection, schedule: Q07DX005 (ip), vehicle: Klucel (hydroxypropylcellulose) (HPC)) is given as 0 of 10 on day 30.

Consider `Nc1n[nH]c(N)n1`, for which the T/C (T/C endpoint: mean tumor weight, dose: 50.0 mg/kg/injection, schedule: Q01DX009 (ip), vehicle: saline, evaluated on day 25) was 126 % of control.

In the case of `c1cc(OCC2CO2)ccc1OCC1CO1` (stereo not given), the survivor count is reported as 3 of 10 on day 29 under setting [2]; 0 of 10 on day 29 under setting [3]; 0 of 10 on day 29 (T/C endpoint: median tumor weight change, dose: 2000.0 mg/kg/injection, schedule: Q01DX001 (ip), vehicle: Klucel (hydroxypropylcellulose) (HPC)).

On to `CC(C)CCCCCCCCCCCCC(=O)NCC(=O)NC1C(O)C(O)C(Nc2ncnc3nc[nH]c23)OC1C(O)CO` (stereo not given), for which the survivor count (T/C endpoint: median tumor weight (est.), dose: 8.0 mg/kg/injection, schedule: Q07DX005 (ip), vehicle: Klucel (hydroxypropylcellulose) (HPC)) is given as 5 of 10.

As for `Nc1ccc(C(OC(=O)c2cc3ccccc3c(Cc3c(O)c(C(=O)OC(c4ccc(N)cc4)(c4ccc(N)cc4)c4ccc(N)cc4)cc4ccccc34)c2O)(c2ccc(N)cc2)c2ccc(N)cc2)cc1`, the T/C runs as follows: (T/C endpoint: median tumor weight change, dose: 12.5 mg/kg/injection, schedule: Q01DX001 (ip), vehicle: saline with Tween-80, evaluated on day 31) 126 % of control [9 of 10 alive on day 31]; (T/C endpoint: median tumor weight change, dose: 25.0 mg/kg/injection, schedule: Q01DX001 (ip), vehicle: saline with Tween-80, evaluated on day 31) 135 % of control [9 of 10 alive on day 31]; (T/C endpoint: median tumor weight change, dose: 31.25 mg/kg/injection, schedule: Q01DX001 (ip), vehicle: saline with Tween-80, evaluated on day 28) 137 % of control. Besides, the survivor count runs as follows: (T/C endpoint: median tumor weight change, dose: 125.0 mg/kg/injection, schedule: Q01DX001 (ip), vehicle: saline with Tween-80) 1 of 10 on day 28; under setting [1], 2 of 10 on day 28.
